Experimental data taken from paper PMC2703648.

Target: GST-IgFn (IgFn region of rat Kalirin12 fused to GST) (rat) (UniProt P97924)
Assay: affinity purification with mass spectrometry; GST-IgFn on glutathione-Sepharose 4B beads incubated 1 h, 4C with cytosolic and solubilized organellar fractions (5 mg protein) of adult rat cortex, pre-cleared on GST beads; 100 kDa band excised, trypsin digestion, mass spectrometry; only the target purified

B1: dynamin1 (rat, endogenous) (protein, UniProt P21575 1-864)
chain: MGNRGMEDLIPLVNRLQDAFSAIGQNADLDLPQIAVVGGQSAGKSSVLENFVGRDFLPRGSGIVTRRPLVLQLVNSTTEYAEFLHCKGKKFTDFEEVRLEIEAETDRVTGTNKGISPVPINLRVYSPHVLNLTLVDLPGMTKVPVGDQPPDIEFQIRDMLMQFVTKENCLILAVSPANSDLANSDALKIAKEVDPQGQRTIGVITKLDLMDEGTDARDVLENKLLPLRRGYIGVVNRSQKDIDGKKDITAALAAERKFFLSHPSYRHLADRMGTPYLQKVLNQQLTNHIRDTLPGLRNKLQSQLLSIEKEVDEYKNFRPDDPARKTKALLQMVQQFAVDFEKRIEGSGDQIDTYELSGGARINRIFHERFPFELVKMEFDEKELRREISYAIKNIHGIRTGLFTPDLAFEATVKKQVQKLKEPSIKCVDMVVSELTSTIRKCSEKLQQYPRLREEMERIVTTHIREREGRTKEQVMLLIDIELAYMNTNHEDFIGFANAQQRSNQMNKKKTSGNQDEILVIRKGWLTINNIGIMKGGSKEYWFVLTAENLSWYKDDEEKEKKYMLSVDNLKLRDVEKGFMSSKHIFALFNTEQRNVYKDYRQLELACETQEEVDSWKASFLRAGVYPERVGDKEKASETEENGSDSFMHSMDPQLERQVETIRNLVDSYMAIVNKTVRDLMPKTIMHLMINNTKEFIFSELLANLYSCGDQNTLMEESAEQAQRRDEMLRMYHALKEALSIIGDINTTTVSTPMPPPVDDSWLQVQSVPAGRRSPTSSPTPQRRAPAVPPARPGSRGPAPGPPPAGSALGGAPPVPSRPGASPDPFGPPPQVPSRPNRAPPGVPSRSGQASPSRPESPRPPFDL
In the case of B1, the binding is reported as “binds”.

Results are given in words; binding and its absence hold for the method and conditions named. In cells and extracts the contact can be indirect. A yes stands for co-enrichment or nearness to the bait. Other partners may have been found.
